Source: PMC3386226
Positions count from the first letter of the chain named. Results are given in words; binding and its absence hold for the method and conditions named. Binding seen in cells or lysates may run through a third protein. Some entries that bind do so weakly or less than the wild type. Sequences can lack the tags named with a protein.

The chains behind the UniProt entries cited, without tags or fusion partners.
UniProt Q02099: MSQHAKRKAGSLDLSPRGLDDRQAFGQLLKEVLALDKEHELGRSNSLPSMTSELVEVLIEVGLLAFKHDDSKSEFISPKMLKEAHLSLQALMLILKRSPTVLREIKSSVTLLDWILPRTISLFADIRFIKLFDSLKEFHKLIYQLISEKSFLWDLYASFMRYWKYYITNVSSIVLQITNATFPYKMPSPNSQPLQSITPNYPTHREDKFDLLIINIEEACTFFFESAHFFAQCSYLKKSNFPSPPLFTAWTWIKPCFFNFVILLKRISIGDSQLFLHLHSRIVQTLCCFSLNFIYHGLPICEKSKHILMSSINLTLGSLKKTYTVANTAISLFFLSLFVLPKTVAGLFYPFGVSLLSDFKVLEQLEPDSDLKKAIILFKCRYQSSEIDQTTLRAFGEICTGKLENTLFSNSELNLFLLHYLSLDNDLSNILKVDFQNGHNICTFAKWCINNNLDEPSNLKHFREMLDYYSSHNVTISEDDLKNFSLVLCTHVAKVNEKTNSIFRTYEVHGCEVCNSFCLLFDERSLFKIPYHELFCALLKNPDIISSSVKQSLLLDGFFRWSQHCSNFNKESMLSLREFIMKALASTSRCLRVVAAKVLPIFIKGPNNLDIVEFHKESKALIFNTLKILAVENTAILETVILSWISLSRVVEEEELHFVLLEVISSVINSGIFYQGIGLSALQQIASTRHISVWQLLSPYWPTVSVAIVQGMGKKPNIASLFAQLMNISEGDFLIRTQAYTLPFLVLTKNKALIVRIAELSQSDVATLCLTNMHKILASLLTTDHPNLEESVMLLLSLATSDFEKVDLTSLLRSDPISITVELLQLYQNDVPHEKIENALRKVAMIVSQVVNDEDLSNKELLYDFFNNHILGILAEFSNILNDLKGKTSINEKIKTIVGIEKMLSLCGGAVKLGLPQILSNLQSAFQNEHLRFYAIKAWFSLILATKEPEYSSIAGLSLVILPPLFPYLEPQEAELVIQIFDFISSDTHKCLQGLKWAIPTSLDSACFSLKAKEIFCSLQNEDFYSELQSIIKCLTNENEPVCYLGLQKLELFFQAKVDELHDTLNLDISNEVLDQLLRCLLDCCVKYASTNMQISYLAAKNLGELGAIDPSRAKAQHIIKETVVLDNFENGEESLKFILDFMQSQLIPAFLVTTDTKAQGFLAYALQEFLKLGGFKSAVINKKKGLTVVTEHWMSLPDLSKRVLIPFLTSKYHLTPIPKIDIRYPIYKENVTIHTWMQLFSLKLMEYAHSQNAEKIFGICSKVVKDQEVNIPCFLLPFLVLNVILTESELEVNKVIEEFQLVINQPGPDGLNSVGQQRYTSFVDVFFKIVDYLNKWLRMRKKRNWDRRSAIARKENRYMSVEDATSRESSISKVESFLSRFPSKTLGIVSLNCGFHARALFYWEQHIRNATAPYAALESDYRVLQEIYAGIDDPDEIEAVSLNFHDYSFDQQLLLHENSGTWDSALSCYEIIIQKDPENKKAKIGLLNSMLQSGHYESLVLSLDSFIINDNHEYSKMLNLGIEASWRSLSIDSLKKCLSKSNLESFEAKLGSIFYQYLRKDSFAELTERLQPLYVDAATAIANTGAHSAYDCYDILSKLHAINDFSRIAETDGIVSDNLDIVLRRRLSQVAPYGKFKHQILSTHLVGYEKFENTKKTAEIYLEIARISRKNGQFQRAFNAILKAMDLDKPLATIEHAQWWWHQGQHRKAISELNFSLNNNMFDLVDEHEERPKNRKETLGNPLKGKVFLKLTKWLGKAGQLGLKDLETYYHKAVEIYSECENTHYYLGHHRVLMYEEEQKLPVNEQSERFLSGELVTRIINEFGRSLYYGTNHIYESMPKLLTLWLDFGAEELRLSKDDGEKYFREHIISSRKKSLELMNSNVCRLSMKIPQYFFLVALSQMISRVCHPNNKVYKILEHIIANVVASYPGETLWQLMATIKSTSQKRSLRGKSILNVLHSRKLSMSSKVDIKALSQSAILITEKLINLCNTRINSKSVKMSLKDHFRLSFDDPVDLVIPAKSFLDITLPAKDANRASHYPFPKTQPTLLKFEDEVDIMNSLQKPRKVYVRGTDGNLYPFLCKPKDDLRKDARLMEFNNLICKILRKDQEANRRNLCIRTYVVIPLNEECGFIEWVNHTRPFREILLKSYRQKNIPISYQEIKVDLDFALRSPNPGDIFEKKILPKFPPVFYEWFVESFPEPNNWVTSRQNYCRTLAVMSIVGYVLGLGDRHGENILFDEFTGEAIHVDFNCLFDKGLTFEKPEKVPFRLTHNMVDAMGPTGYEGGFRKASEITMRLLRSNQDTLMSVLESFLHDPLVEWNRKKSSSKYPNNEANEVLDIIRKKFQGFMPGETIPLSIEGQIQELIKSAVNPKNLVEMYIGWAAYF

Legend:
Assay in all cases: pull-down; recombinant GST and GST-fusion proteins used for affinity capture from soluble S. pombe myc-rad3 extracts; Rad3 detected with α-Myc, Cdc13 with α-Cdc13; only the target purified
[1] = target: T1, Rad4[288–648] Y599R fused to GST (AAD-mutated) (S. pombe) (UniProt P32372)
T1 sequence: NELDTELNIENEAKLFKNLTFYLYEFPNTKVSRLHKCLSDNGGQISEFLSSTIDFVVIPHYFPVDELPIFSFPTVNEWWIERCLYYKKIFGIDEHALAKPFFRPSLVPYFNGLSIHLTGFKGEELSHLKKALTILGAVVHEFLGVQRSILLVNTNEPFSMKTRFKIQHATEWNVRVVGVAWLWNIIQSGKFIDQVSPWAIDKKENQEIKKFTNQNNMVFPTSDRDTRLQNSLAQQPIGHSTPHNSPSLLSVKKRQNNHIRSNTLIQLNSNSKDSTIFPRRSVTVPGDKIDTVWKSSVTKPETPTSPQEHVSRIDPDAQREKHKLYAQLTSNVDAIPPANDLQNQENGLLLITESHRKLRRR

[2] = target: T2, Rad4[288–648] fused to GST (wild type; includes BRCT (3+4) and the unstructured C-terminal tail) (S. pombe) (UniProt P32372)
T2 sequence: T1 sequence with R312Y

[3] = target: T3, Rad4[288–648] S641A (CDK phosphorylation site mutant) fused to GST (S. pombe) (UniProt P32372)
T3 sequence: T1 sequence with R312Y, S354A

[4] = target: T4, Rad4[288–648] with deletion of residues 643–645 (putative cyclin binding motif, RxL) fused to GST (S. pombe) (UniProt P32372)
T4 sequence: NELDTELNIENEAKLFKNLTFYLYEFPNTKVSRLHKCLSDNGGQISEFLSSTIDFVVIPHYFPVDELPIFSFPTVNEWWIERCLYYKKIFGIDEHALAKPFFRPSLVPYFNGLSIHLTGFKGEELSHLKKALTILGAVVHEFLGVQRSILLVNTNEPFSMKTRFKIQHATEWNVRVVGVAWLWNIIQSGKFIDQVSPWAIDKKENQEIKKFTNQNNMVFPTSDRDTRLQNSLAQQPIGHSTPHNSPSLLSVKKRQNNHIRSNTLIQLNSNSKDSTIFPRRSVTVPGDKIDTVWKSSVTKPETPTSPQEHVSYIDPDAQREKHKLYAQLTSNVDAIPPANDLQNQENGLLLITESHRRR

Measured: binding

Rad3^ATR-Myc (from 3myc-rad3 S. pombe cells) (from UniProt Q02099 1-2386)
binds: [1] | [2]

B1: Cdc13^CyclinB (protein, UniProt P10815 1-482)
chain: MTTRRLTRQHLLANTLGNNDENHPSNHIARAKSSLHSSENSLVNGKKATVSSTNVPKKRHALDDVSNFHNKEGVPLASKNTNVRHTTASVSTRRALEEKSIIPATDDEPASKKRRQPSVFNSSVPSLPQHLSTKSHSVSTHGVDAFHKDQATIPKKLKKDVDERVVSKDIPKLHRDSVESPESQDWDDLDAEDWADPLMVSEYVVDIFEYLNELEIETMPSPTYMDRQKELAWKMRGILTDWLIEVHSRFRLLPETLFLAVNIIDRFLSLRVCSLNKLQLVGIAALFIASKYEEVMCPSVQNFVYMADGGYDEEEILQAERYILRVLEFNLAYPNPMNFLRRISKADFYDIQTRTVAKYLVEIGLLDHKLLPYPPSQQCAAAMYLAREMLGRGPWNRNLVHYSGYEEYQLISVVKKMINYLQKPVQHEAFFKKYASKKFMKASLFVRDWIKKNSIPLGDDADEDYTFHKQKRIQHDMKDEEW
binds: all assays above
